Laboratory results reported in paper PMC12089306.
These are yes or no findings as the source states them, for the method shown. In cells and extracts the contact can be indirect. Some binding calls cover weakened binding; strength is not graded here. Blank lines part the entries; values can stand above or below the molecule they belong to.

Sequences of proteins named here, by UniProt entry; tags and fusion partners are left off. A change or cut given only in a name is not applied to a line headed by its entry. A line that says so, or that is headed by a name, gives the form on record, which may keep a tag or linker.
UniProt Q15561: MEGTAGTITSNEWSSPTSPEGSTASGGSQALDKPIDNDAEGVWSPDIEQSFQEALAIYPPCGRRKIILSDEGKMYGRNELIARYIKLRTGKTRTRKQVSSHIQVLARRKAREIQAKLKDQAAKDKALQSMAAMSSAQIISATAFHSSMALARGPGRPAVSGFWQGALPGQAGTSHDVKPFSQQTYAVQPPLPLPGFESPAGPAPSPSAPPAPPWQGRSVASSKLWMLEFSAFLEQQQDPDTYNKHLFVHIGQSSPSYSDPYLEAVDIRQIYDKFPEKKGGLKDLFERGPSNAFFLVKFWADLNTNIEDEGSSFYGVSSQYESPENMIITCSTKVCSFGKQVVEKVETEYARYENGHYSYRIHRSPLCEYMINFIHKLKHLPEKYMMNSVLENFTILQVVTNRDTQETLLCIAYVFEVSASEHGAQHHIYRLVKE
UniProt P28347: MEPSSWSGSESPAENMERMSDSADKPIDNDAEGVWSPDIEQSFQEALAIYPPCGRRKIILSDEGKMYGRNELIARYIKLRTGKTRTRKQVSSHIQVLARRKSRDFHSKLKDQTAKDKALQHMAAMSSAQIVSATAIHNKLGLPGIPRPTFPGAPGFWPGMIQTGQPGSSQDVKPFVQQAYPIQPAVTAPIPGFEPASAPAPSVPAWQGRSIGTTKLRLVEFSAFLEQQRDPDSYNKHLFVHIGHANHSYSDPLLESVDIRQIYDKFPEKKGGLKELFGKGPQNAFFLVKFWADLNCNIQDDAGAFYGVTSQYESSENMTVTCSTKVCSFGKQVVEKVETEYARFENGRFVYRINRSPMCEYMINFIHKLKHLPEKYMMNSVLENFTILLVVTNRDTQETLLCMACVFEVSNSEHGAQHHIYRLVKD
UniProt Q15562: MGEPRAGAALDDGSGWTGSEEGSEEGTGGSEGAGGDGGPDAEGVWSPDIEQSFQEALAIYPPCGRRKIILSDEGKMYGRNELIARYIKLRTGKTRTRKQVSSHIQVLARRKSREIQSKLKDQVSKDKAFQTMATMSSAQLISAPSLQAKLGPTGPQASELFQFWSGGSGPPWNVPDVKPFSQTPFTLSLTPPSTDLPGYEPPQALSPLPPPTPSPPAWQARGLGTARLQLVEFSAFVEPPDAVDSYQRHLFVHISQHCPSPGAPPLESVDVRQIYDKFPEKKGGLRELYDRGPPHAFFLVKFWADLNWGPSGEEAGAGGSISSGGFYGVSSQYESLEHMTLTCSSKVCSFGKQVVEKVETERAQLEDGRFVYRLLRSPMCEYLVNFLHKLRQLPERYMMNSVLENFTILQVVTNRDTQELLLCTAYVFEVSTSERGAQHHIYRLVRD
UniProt Q99594: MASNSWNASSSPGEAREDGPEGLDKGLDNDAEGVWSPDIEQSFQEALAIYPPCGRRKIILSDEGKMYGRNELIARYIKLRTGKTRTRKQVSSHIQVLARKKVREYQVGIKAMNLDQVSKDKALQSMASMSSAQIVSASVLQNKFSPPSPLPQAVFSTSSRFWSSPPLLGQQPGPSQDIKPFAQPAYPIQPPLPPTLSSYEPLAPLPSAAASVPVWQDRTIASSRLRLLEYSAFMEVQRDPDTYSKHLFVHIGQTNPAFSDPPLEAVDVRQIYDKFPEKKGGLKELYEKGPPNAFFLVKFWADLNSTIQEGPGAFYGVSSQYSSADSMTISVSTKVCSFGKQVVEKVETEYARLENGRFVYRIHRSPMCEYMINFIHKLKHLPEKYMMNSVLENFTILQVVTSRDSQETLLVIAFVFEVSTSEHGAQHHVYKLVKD
UniProt P08047: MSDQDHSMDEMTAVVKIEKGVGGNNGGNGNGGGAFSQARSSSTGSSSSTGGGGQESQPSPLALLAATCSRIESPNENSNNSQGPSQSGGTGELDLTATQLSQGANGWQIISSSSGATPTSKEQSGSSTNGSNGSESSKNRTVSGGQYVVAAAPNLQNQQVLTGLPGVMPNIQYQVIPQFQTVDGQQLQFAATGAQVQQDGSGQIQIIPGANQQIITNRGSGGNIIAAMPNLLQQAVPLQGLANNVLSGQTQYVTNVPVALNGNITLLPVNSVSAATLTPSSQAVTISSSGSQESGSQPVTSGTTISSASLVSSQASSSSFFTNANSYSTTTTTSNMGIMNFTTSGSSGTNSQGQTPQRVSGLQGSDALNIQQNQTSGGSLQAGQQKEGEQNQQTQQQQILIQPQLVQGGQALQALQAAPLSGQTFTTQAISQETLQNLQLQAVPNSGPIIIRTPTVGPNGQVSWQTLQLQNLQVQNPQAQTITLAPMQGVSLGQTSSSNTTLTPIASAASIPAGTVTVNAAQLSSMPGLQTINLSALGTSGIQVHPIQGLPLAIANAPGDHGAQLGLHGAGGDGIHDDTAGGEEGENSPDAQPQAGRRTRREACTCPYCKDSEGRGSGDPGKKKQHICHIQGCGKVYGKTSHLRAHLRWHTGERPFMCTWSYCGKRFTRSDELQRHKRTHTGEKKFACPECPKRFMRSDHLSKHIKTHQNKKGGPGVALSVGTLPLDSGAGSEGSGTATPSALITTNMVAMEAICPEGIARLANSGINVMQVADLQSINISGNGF
SP1 with individual mutation of S670 (P08047, form named): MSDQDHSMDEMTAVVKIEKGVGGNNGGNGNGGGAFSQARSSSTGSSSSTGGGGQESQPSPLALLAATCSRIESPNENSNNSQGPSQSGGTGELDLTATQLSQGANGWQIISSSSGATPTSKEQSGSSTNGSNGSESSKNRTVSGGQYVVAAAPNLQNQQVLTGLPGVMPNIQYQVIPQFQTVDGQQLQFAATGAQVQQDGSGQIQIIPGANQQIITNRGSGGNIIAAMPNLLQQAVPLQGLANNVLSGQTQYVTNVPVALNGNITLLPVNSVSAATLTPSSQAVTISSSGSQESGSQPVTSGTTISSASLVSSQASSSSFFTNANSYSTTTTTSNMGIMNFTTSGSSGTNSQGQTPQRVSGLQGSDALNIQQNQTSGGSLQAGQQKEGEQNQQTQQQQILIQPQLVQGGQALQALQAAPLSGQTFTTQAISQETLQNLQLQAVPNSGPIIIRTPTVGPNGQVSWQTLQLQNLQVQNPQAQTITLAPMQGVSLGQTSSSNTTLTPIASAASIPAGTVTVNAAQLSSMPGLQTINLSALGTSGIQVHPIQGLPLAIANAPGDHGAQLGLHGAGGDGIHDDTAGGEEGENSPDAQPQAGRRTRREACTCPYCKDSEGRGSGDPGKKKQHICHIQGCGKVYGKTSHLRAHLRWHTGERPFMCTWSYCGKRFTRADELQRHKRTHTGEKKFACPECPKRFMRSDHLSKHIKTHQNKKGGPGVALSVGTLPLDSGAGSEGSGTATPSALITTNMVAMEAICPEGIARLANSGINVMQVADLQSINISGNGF
SP1 with individual mutation of T668 (P08047, form named): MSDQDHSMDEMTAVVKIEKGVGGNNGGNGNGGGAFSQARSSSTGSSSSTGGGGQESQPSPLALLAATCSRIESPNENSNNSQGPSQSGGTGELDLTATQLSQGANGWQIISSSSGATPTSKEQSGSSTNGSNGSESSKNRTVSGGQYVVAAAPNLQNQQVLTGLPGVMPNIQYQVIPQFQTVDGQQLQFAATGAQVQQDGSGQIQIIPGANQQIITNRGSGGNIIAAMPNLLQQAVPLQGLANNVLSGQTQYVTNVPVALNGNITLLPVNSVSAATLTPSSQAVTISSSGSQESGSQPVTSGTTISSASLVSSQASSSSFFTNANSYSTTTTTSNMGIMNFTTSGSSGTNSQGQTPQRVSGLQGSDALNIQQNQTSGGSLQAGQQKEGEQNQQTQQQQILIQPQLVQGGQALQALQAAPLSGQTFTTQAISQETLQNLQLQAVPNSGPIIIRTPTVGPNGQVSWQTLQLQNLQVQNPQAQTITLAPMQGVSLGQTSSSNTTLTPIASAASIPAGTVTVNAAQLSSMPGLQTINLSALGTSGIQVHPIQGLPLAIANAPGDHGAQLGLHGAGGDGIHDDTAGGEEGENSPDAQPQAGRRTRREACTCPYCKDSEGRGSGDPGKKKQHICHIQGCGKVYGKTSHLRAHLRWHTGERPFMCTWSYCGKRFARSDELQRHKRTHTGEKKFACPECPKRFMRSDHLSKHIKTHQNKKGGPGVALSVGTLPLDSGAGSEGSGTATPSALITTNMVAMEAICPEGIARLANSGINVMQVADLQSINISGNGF
SP1 with individual mutation of T681 (P08047, form named): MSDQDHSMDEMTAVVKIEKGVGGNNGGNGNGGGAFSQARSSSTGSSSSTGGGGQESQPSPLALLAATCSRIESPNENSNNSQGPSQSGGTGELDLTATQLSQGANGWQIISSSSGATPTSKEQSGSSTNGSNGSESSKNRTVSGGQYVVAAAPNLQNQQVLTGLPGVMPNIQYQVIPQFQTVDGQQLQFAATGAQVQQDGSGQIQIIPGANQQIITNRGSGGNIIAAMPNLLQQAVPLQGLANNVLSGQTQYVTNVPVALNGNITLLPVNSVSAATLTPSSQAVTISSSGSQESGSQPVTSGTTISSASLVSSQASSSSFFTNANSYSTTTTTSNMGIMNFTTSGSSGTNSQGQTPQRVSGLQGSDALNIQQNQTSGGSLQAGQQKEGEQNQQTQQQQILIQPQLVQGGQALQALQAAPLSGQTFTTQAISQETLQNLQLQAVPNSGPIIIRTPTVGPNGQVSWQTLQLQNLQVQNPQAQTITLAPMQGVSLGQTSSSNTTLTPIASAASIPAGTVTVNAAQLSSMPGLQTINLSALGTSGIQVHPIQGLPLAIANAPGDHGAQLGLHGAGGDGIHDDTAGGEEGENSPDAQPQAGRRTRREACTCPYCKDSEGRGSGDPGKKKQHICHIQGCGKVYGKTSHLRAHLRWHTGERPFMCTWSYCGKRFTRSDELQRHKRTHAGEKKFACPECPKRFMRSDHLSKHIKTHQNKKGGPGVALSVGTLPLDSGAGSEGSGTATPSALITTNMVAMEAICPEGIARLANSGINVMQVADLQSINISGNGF

Tests used:
[1] = molecular target: FLAG-TEAD4 (UniProt Q15561); assay: co-IP; exogenous FLAG-YAP/TAZ/TEAD4 and HA-SP1 co-expressed in HEK293T cells
[2] = molecular target: TEAD1 (UniProt P28347); assay: co-IP; Supplementary Fig. S2A; the four TEAD family members with SP1; cells and constructs not shown
[3] = molecular target: TEAD2 (UniProt Q15562); assay: as above
[4] = molecular target: TEAD3 (UniProt Q99594); assay: as above
[5] = molecular target: TEAD4 (as used in Supplementary Fig. S2A) (UniProt Q15561); assay: as above
[6] = molecular target: TEAD4 (in HCT116 cells, Fig. 2I and Fig. 3) (UniProt Q15561); assay: co-IP; HCT116 cells transfected with the indicated plasmids (WT, truncated or phosphorylation-site mutant SP1; TEAD4; PKCζ); serum starvation and 10% serum, PKCζ overexpression, PKCζ siRNA, 1 μM ZIP, LATS1/2 knockdown as treatments
[7] = molecular target: FLAG-TEAD4 (in HCT116 cells) (UniProt Q15561); assay: co-IP; exogenous FLAG-TEAD4 (wild type or mutants) and endogenous SP1 in HCT116 cells; in the presence or absence of DNase I
[8] = molecular target: endogenous TEAD4 (human (endogenous in HCT116)) (UniProt Q15561); assay: proximity ligation; Duolink In Situ Detection Kit on fixed, permeabilised HCT116 cells; antibodies against SP1 (rabbit) and YAP, TAZ or TEAD4 (mouse)
[9] = molecular target: endogenous TEAD4 (human (endogenous in HCT116)) (UniProt Q15561); assay: co-IP; endogenous proteins in HCT116 lysate; primary antibodies at 4 °C overnight, protein A/G agarose beads 2 h; with or without SP1 knockdown for YAP/TAZ with TEADs

binding [6]: binds
Molecule: SP1 with individual mutation of T668 (from UniProt P08047 1-785)

binding [6]: binds
Molecule: SP1 with individual mutation of T681 (from UniProt P08047 1-785)

binding [6]: binds
Molecule: WT SP1 (exogenous, in HCT116 cells) (from UniProt P08047 1-785)

Continued, molecule first:

Molecule: HA-SP1 (from UniProt P08047 1-785)
binding [1]: binds

Molecule: SP1 (as used in Supplementary Fig. S2A) (from UniProt P08047 1-785)
binding [2]: binds
binding [3]: binds
binding [4]: binds
binding [5]: binds

Molecule: SP1 with individual mutation of S670 (from UniProt P08047 1-785)
binding [6]: binds

Molecule: endogenous SP1 (from UniProt P08047 1-785)
binding [7]: binds
binding [8]: binds
binding [9]: binds weakly

B1: PKCζ (protein kinase C ζ) (enzyme, UniProt Q05513 1-592)
chain: MPSRTGPKMEGSGGRVRLKAHYGGDIFITSVDAATTFEELCEEVRDMCRLHQQHPLTLKWVDSEGDPCTVSSQMELEEAFRLARQCRDEGLIIHVFPSTPEQPGLPCPGEDKSIYRRGARRWRKLYRANGHLFQAKRFNRRAYCGQCSERIWGLARQGYRCINCKLLVHKRCHGLVPLTCRKHMDSVMPSQEPPVDDKNEDADLPSEETDGIAYISSSRKHDSIKDDSEDLKPVIDGMDGIKISQGLGLQDFDLIRVIGRGSYAKVLLVRLKKNDQIYAMKVVKKELVHDDEDIDWVQTEKHVFEQASSNPFLVGLHSCFQTTSRLFLVIEYVNGGDLMFHMQRQRKLPEEHARFYAAEICIALNFLHERGIIYRDLKLDNVLLDADGHIKLTDYGMCKEGLGPGDTTSTFCGTPNYIAPEILRGEEYGFSVDWWALGVLMFEMMAGRSPFDIITDNPDMNTEDYLFQVILEKPIRIPRFLSVKASHVLKGFLNKDPKERLGCRPQTGFSDIKSHAFFRSIDWDLLEKKQALPPFQPQITDDYGLDNFDTQFTSEPVQLTPDDEDAIKRIDQSEFEGFEYINPLLLSTEESV
binding [6]: binds
